Some entries share one result that the patent states for a list of compounds.
Legend:
Type in all cases: in vivo
Spodoptera littoralis = Spodoptera littoralis (Egyptian cotton leafworm) leaf disc spray test; conditions: application rate 200 ppm, sprayed cotton leaf discs, L1 larvae, 3 DAT; mortality, feeding behaviour, growth regulation
Heliothis virescens = Heliothis virescens (tobacco budworm) egg test on artificial diet; conditions: application rate 200 ppm (concentration in well 18 ppm), eggs 0-24 h old on artificial diet, 4 days; egg mortality, larval mortality, growth regulation
Plutella xylostella = Plutella xylostella (diamond back moth) artificial diet test; conditions: application rate 200 ppm (concentration in well 18 ppm), L2 larvae, 6 days, larval mortality, growth regulation
Diabrotica balteata = Diabrotica balteata (corn root worm) artificial diet test; conditions: application rate 200 ppm (concentration in well 18 ppm), L2 larvae, 5 days, larval mortality, growth regulation
Thrips tabaci = Thrips tabaci (onion thrips) leaf disc spray test; conditions: application rate 200 ppm, sprayed sunflower leaf discs, mixed ages, 7 days; mortality

CCc1cc(C(F)(C(F)(F)F)C(F)(F)C(F)(F)F)cc(C)c1NC(=O)c1ccc(C#N)c(NC(=O)OCC(Cl)(Cl)Cl)c1 (stereo not shown) [A14]
at least 80%: control of Spodoptera littoralis (Spodoptera littoralis) | control of Heliothis virescens (Heliothis virescens) | control of Plutella xylostella (Plutella xylostella) | control of Diabrotica balteata (Diabrotica balteata) | control of Thrips tabaci (Thrips tabaci)

COCc1cc(C(F)(C(F)(F)F)C(F)(F)F)cc(C)c1NC(=O)c1ccc(C#N)c(NC(=O)OCC(Cl)(Cl)Cl)c1 [A7]
at least 80%: control of Spodoptera littoralis (Spodoptera littoralis) | control of Heliothis virescens (Heliothis virescens) | control of Plutella xylostella (Plutella xylostella) | control of Diabrotica balteata (Diabrotica balteata)

CCc1cc(C(F)(C(F)(F)F)C(F)(F)C(F)(F)F)cc(C)c1NC(=O)c1ccc(C#N)c(NC(=O)OC)c1 (stereo not shown) [A13]
at least 80%: control of Spodoptera littoralis (Spodoptera littoralis) | control of Heliothis virescens (Heliothis virescens) | control of Plutella xylostella (Plutella xylostella) | control of Diabrotica balteata (Diabrotica balteata)

N#Cc1ccc(C(=O)Nc2c(Br)cc(C(F)(C(F)(F)F)C(F)(F)F)cc2Br)cc1NC(=O)OCC(Cl)(Cl)Cl [A11]
at least 80%: control of Spodoptera littoralis (Spodoptera littoralis) | control of Heliothis virescens (Heliothis virescens) | control of Plutella xylostella (Plutella xylostella) | control of Diabrotica balteata (Diabrotica balteata) | control of Thrips tabaci (Thrips tabaci)

CCc1cc(C(F)(C(F)(F)F)C(F)(F)F)cc(CC)c1NC(=O)c1ccc(C#N)c(N(C)C(=O)OCC(Cl)(Cl)Cl)c1 [A6]
at least 80%: control of Spodoptera littoralis (Spodoptera littoralis) | control of Heliothis virescens (Heliothis virescens) | control of Plutella xylostella (Plutella xylostella) | control of Diabrotica balteata (Diabrotica balteata)

CCN(C(=O)OCC(Cl)(Cl)Cl)c1cc(C(=O)Nc2c(C)cc(C(F)(C(F)(F)F)C(F)(F)F)cc2C)ccc1C#N [A2]
at least 80%: control of Spodoptera littoralis (Spodoptera littoralis) | control of Heliothis virescens (Heliothis virescens) | control of Plutella xylostella (Plutella xylostella) | control of Diabrotica balteata (Diabrotica balteata)

CCc1cc(C(F)(C(F)(F)F)C(F)(F)F)cc(CC)c1NC(=O)c1cccc(NC(=O)OCC(Cl)(Cl)Cl)c1C#N [D1]
at least 80%: control of Spodoptera littoralis (Spodoptera littoralis)

CCc1cc(C(F)(C(F)(F)F)C(F)(F)C(F)(F)F)cc(CC)c1NC(=O)c1ccc(C#N)c(NC(=O)OCC(Cl)(Cl)Cl)c1 (stereo not shown) [A12]
at least 80%: control of Spodoptera littoralis (Spodoptera littoralis) | control of Heliothis virescens (Heliothis virescens) | control of Plutella xylostella (Plutella xylostella) | control of Diabrotica balteata (Diabrotica balteata) | control of Thrips tabaci (Thrips tabaci)

Cc1cc(C(F)(C(F)(F)F)C(F)(F)F)cc(C)c1NC(=O)c1ccc(C#N)c(N(C)C(=O)OCC(Cl)(Cl)Cl)c1 [A3]
at least 80%: control of Spodoptera littoralis (Spodoptera littoralis) | control of Heliothis virescens (Heliothis virescens) | control of Plutella xylostella (Plutella xylostella) | control of Diabrotica balteata (Diabrotica balteata)

CCc1cc(C(F)(C(F)(F)F)C(F)(F)F)cc(CC)c1NC(=O)c1ccc(C#N)c(NC(=O)OCC(Cl)(Cl)Cl)c1 [A4]
at least 80%: control of Spodoptera littoralis (Spodoptera littoralis) | control of Heliothis virescens (Heliothis virescens) | control of Plutella xylostella (Plutella xylostella) | control of Diabrotica balteata (Diabrotica balteata)

— patent US8247594B2, “Insecticidal compounds” (Syngenta Crop Protection LLC, priority 2007, dated 2012)
